Measurements published in patent publication EP0696280B1, “SUBSTITUTED PYRROLIDIN-3-YL-ALKYL-PIPERIDINES USEFUL AS TACHYKININ ANTAGONISTS” (MERRELL PHARMACEUTICALS INC., priority 1993, dated 1994).
Counter-ions that a name gives are not always drawn. Some results were stated once for a whole list of compounds, not compound by compound.

Molecular target: T1, NK2 receptor (Bos taurus, UniProt P05363)
T1 construct: expressed in transfected cells; host or cells: SKLKB82#3 cells
T1 sequence (P05363 1-384): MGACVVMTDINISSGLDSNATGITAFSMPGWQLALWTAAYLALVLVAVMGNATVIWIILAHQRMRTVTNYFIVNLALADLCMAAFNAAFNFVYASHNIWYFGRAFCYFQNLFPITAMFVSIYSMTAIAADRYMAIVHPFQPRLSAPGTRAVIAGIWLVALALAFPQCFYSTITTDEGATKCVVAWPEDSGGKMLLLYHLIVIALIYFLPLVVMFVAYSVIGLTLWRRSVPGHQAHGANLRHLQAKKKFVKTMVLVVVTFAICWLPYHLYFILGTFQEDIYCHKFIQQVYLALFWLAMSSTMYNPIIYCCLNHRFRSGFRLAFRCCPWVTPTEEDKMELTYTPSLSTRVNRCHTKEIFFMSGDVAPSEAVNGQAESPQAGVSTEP
Test: Antagonism of NK2 receptor mediated (NKA-induced) phosphatidylinositol turnover in SKLKB82#3 cells
Type: cell-based
Details: result in words
Experimental: Tachykinin-mediated inositol phosphate accumulation was measured in UCll or SKLKB82#3 cells in the presence and absence of NK1 or NK2 receptor antagonists, respectively. Tissues were incubated in Krebs-Henseleit buffer at 37°C with 95% O2-5% CO2 gassing. Tissues were then incubated with fresh buffer containing 100 µCi of myo-[2-^3H(N)] inositol at 37°C for 60 min with gentle gassing. After washing twice at room temperature in 5 ml buffer containing 10 mM LiCl, tissues were incubated for 30 min at room temperature with a buffer change at 15 min. […] The third elution was collected and 1 ml counted in 7 ml scintillation fluid. A 50 µl aliquot of the organic (bottom) phase was removed, dried in a scintillation vial and counted in 7 ml scintillation fluid.
The ratio of DPM in the aqueous phase aliquot (total inositol phosphates) to the DPM in the 50 µl organic phase aliquot (total [^3H]inositol incorporated) was calculated for each sample. Data are expressed as a percent of agonist-induced accumulation of [^3H]-inositol phosphates over basal levels. […] Dose-response graphs were constructed and the abilities of the test compounds to inhibit tachykinin-induced phosphatidylinositol turnover determined with the aid of a computer program. […] Data is expressed as percent stimulation of total inositol phosphate accumulation over basal levels and normalized to the maximum response produced by SP. […]

COc1cccc(OC)c1C(=O)N1CCC(CCN2CCC(C(N)=O)(c3ccccc3)CC2)(c2ccc(Cl)c(Cl)c2)C1 (racemic) [Example 5A, 1-[2-[3-(3,4-dichloro-phenyl-3-yl)-1-(2,6-dimethoxy-benzoyl)-pyrrolidin-3-yl]-ethyl]-4-phenyl-piperidine-4-carboxylic acid amide hydrochloride]
agonist activity (stimulation of PI turnover by compound alone): absence of agonist activity
